Measured values reported in patent US20260130928A1, “COMBINATION OF AKR1C3 ACTIVATED ANTICANCER PRODRUG COMPOUND AND ANALGESIC DRUG FOR TREATING CANCER PATIENTS ACCOMPANIED BY PAIN” (ASCENTAWITS PHARMACEUTICALS, LTD., priority 2022, published 2026).
Where two headings read alike, the source gives them in different places.

Assays:
clinical = conditions: human, in vivo
[1] = Naproxen tablets; drug instructions NDA017581; cited from earlier work

Cmax (clinical): 423 µM
SMILES: COc1ccc2cc([C@H](C)C(=O)O)ccc2c1 [Naproxen]
Cmax [1]: 97.4 µg/mL
